# Laboratory results: PubChem BioAssay AID2685 (National Center for Advancing Translational Sciences (NCATS), 2010)
# Some of the results follow. Further columns of the screen follow, without active or inactive calls. The list favours compounds with an active or inconclusive main result. Words in brackets tell the shape of the fitted curve; partial curves, single points and poor fits give uncertain potencies.
# Test: qHTS Assay for Lipid Storage Modulators in Drosophila S3 Cells;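 as to cell number change: cells counted by Cell Tracker Red CMTPX staining in the red channel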
# Details: BODIPY lipid droplet fluorescence, 18-24 h; for cell number change: measured here: cell count max response, cells fed with added oleic acid
# Procedure, shortened: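 Drosophila S3 cells got compounds at several concentrations plus oleic acid (400 uM solution). Laser-scanning cytometry with 488 nm excitation read lipid droplets at 500-530 nm and cells at 575-640 nm. Percent activity was relative to 20 uM Triacsin C.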
# [1] = measured here: lipid fluorescence (Fed channel) AC50, cells fed with added oleic acid
# [2] = measured here: cell number channel AC50, cells fed with added oleic acid
Compound,cell number change [%],AC50 [1],AC50 [2]
O=C(NCc1ccccn1)C1CC(c2ccc(Cl)c(Cl)c2)=NO1 (stereo unspecified),118,–,–
O=C(CSc1nccc(=O)[nH]1)Nc1cccc2ccccc12,-11.5,"1.16 µM [rising, full curve]",–
COc1ccc(CC(=O)n2nc(-c3ccc(Cl)cc3)nc2NCc2ccco2)cc1,63.6,–,–
COc1ccc(N2CCSC2C(=O)NN)cc1 (stereo unspecified),7.18,"5.17 µM [falling, single point]","4.11 µM [falling, single point]"
CCOc1ccc(/C=C2\SC(=S)N(CC(=O)NCCCN3CCOCC3)C2=O)cc1,17.9,–,–
O=C(NCCC1=CCCCC1)c1ccc2c(c1)N(Cc1ccccc1)C(=O)CS2,-15.6,"1.3 µM [rising, full curve, poor fit]",–
O=C(Nc1ccnn1C1CCN(Cc2ccc(CO)o2)CC1)c1ccc2c(c1)OCO2,17.3,–,–
O=C(CSc1nnc(SCc2ccc(Cl)cc2)s1)N/N=C/c1ccc(C(=O)O)cc1,-29.9,"1.3 µM [falling, full curve]","4.11 µM [falling, full curve, poor fit]"
CCCc1nc2nc(C)c(NS(=O)(=O)c3ccc(Cl)cc3)c(=O)n2[nH]1,2.38,"6.51 µM [rising, partial curve, poor fit]",–
COc1ccc(C2c3c(ncn(CCN4CCOCC4)c3=N)Oc3ccc4ccccc4c32)cc1OC (stereo unspecified),-33.2,–,"10.3 µM [falling, partial curve, poor fit]"
CC1OC(OC2C(Oc3c(-c4ccc(O)cc4)oc4cc(O)cc(O)c4c3=O)OC(COC3O[C@@H](C)[C@H](O)[C@@H](O)C3O)C(O)C2O)C(O)C(O)C1O (stereo partly specified),-47.5,–,"29.1 µM [falling, single point]"
COc1ccc(NC(C)C(=O)N2CCN(Cc3ccccc3)CC2)cc1 (stereo unspecified),1.59,–,–
O=C(N=C1SC2CS(=O)(=O)CC2N1c1ccccc1C(F)(F)F)C1CCCO1 (stereo unspecified),-12.3,"6.51 µM [falling, single point]",–
COc1ccc(C(=O)N/N=C\c2coc3ccc(C)cc3c2=O)cc1,1.62,"35.5 µM [rising, single point]",–
O=S(=O)(c1ccccc1C(F)(F)F)N1CCC(n2cnc3ccccc32)CC1,-45.7,"0.517 µM [falling, full curve]","2.31 µM [falling, full curve]"
O=C(Nc1ccc(N=Nc2ccccc2)cc1)c1cccc(Cl)c1,-93,–,"29.1 µM [falling, single point]"
O=C(C1=C(O)C(=O)N(CC2CCCO2)C1c1cccc(Cl)c1)c1ccco1 (stereo unspecified),–,"0.231 µM [falling, full curve, poor fit]",–
COc1ccccc1NC(=O)Cc1noc(CSc2nnc(C)n2C)n1,-14.6,"0.0259 µM [rising, full curve, poor fit]","0.116 µM [rising, partial curve]"
CCOC(=O)C1=C(N)OC2=C(C(=O)CC(C)(C)C2)C1c1ccco1 (stereo unspecified),-13,"18.4 µM [falling, single point]",–
CCCN(C(=O)c1cnccn1)c1c(N)n(Cc2ccccc2)c(=O)[nH]c1=O,17,"29.1 µM [rising, single point]",–

Compound,cell number change [%],AC50 [1],AC50 [2]
COc1cc(/C=C2/C(=O)ON=C2C)ccc1OCc1ccccc1F,–,"6.51 µM [falling, single point]",–
Cc1c[n+]([O-])n(-c2ccc(C(=O)O)cc2)n1,-6.08,"0.00411 µM [falling, full curve, poor fit]",–
COc1ccc(C(=O)N/C(=C\c2cn(C)c3ccccc23)C(=O)OCC(C)C)cc1,7.94,"2.31 µM [rising, full curve, poor fit]",–
CC(C)CCN1CCNC(=O)C1CC(=O)Nc1ccc(F)cc1 (stereo unspecified),-18,"1.84 µM [rising, full curve, poor fit]",–
CCOc1ccc(N(CC(=O)NCc2ccc(Cl)cc2)S(=O)(=O)c2ccccc2)cc1,19.7,–,–
Cc1ccc(NC(=O)COC(=O)c2ccc(CN3CCCC3=O)cc2)cc1C,7.5,–,–
CC(=O)N1N=C(c2ccncc2)OC1(Cc1ccccc1)Cc1ccccc1,-31,"18.4 µM [falling, partial curve, poor fit]","18.4 µM [falling, single point]"
COc1ccc(-n2c(=S)[nH]c3cc(C(=O)Nc4cc(OC)c(OC)c(OC)c4)ccc3c2=O)c(OC)c1,-32.6,–,"29.1 µM [falling, single point]"
CCOC(=O)/C=C/[C@H]1CCc2cccc(Cl)c2O1,-31.4,"0.82 µM [rising, single point]","8.2 µM [falling, partial curve]"
COc1cc(C2/C(=C(\O)c3ccc4c(c3)CC(C)O4)C(=O)C(=O)N2CCCn2ccnc2)ccc1O (stereo unspecified),-28.1,"2.31 µM [falling, full curve]","0.651 µM [falling, full curve]"
O=C(CSc1nnnn1C1CCCCC1)Nc1ccccc1F,10.6,"6.51 µM [falling, single point]",–
CCCn1c(C(C)Nc2nc(C)cs2)nc2cc(Cl)c(Cl)cc21 (stereo unspecified),8.38,–,–
Cc1ccccc1N(C(=O)CCC(=O)Nc1ccccn1)C(C(=O)NC(C)C)c1ccc(F)cc1 (stereo unspecified),-4.76,"0.58 µM [falling, single point]",–
Cc1cc(C)nc(Sc2ncnc(N)c2[N+](=O)[O-])n1,-20,–,–
COc1ccc(CNS(=O)(=O)c2cccc(S(=O)(=O)N3CCOCC3)c2)cc1,14.2,"18.4 µM [falling, partial curve]",–
O=C1CCC(=O)N1OCCOc1ccccc1,32.4,"2.59 µM [falling, full curve]",–
CCN(C(=O)C1CSC2(C)CCC(=O)N12)c1nc2c(C)cccc2s1 (stereo unspecified),44.5,–,"29.1 µM [rising, single point]"
CC(C)(Cc1nc2ccccc2[nH]1)C(=O)O,–,"20.6 µM [falling, partial curve]",–
CC(C)(C)OC(=O)NCc1ccc(CNC(=O)c2nc[nH]c2C(=O)N2CCN(C(=O)OC(C)(C)C)CC2)cc1,-19.9,"1.16 µM [rising, single point]",–
O=C(NCC#CCSc1nnc(-c2cccc3ccccc23)o1)c1cccs1,–,"0.259 µM [rising, full curve]",–

Compound,cell number change [%],AC50 [1],AC50 [2]
O=C(CCCCn1c(=O)c2ccccc2n(Cc2ccc(F)cc2)c1=O)NCc1ccco1,-34.7,"2.06 µM [rising, partial curve, poor fit]","16.4 µM [falling, single point]"
Cc1cc(C)c(C)c(S(=O)(=O)NCCN2CCOCC2)c1C,1.85,"6.51 µM [rising, full curve]",–
O=c1c2ccccc2nnn1CSc1nc2ccccc2c(=O)n1CCCO,4.53,"3.26 µM [rising, partial curve]","4.11 µM [rising, partial curve, poor fit]"
Cc1ccc(C(=O)Nc2ccc(N3CCN(C)CC3)nc2)cc1,–,"1.84 µM [falling, partial curve]","4.61 µM [falling, single point]"
COc1ccc(N2CCN(C(=O)COC(=O)CNC(=O)c3ccccc3)CC2)cc1,–,"6.51 µM [falling, single point]",–
CC(C)(C)c1cc(CP(=O)(c2ccccc2)c2ccccc2)cc(C(C)(C)C)c1O,-29.2,"29.1 µM [falling, single point]",–
COc1cccc(C(=O)Nc2ccc(N3CCN(Cc4ccccc4)CC3)cc2)c1,32.1,–,"0.00461 µM [rising, full curve, poor fit]"
Nc1c(Cl)cc(C2=NCCn3nc4cc(C(F)(F)F)ccc4c32)cc1Cl,-62.5,"6.51 µM [falling, partial curve, poor fit]","18.4 µM [falling, single point]"
O=C(CCNC(=O)c1ccccc1Cl)Nc1cccc(S(=O)(=O)N2CCCCC2)c1,-23.5,"0.731 µM [falling, full curve, poor fit]",–
N/C(=N\OC(=O)C1CCCCC1)c1cccc(Br)c1,8.19,–,"6.51 µM [rising, single point]"
COc1ccc(CCC(=O)Nc2ccc(S(=O)(=O)N3CCOCC3)cc2)cc1,16.8,–,"0.00517 µM [rising, full curve, poor fit]"
O=C(NCCc1ccccc1)c1ccc(Cn2c(SCc3cccc(F)c3)nc3cccnc32)cc1,28.1,"20.6 µM [rising, partial curve]",–
CCCN(Cc1ccccc1)C(=S)Nc1ccc(C(C)=O)cc1,-18.7,"29.1 µM [falling, single point]",–
O=C(NC1CCCCCC1)c1ccc(Br)o1,-3.81,–,–
O=C(CSc1nc(-c2ccco2)cc(C(F)(F)F)n1)NCc1cccs1,-15.1,"0.517 µM [rising, full curve, poor fit]",–
CCN(CC)S(=O)(=O)c1ccc(OC)c(NC(=O)c2cccc(C)c2[N+](=O)[O-])c1,9.83,–,–
Nc1nc(SCCOc2ccccc2)n[nH]1,–,"0.13 µM [rising, full curve, poor fit]",–
CC(=O)Nc1ccc(NC(=O)c2ccc(-n3c(C)ccc3C)cc2)cc1,6.93,"2.31 µM [rising, full curve, poor fit]",–
C=CCn1c(CSc2nc3ccccc3s2)n[nH]c1=S,42,–,"29.1 µM [rising, single point]"

# Single records (already shown). Values in the order: cell number change [%]	AC50 [1]	AC50 [2]
# COc1cc(C2/C(=C(\O)c3ccc4c(c3)CC(C)O4)C(=O)C(=O)N2CCCn2ccnc2)ccc1O (stereo unspecified) as listed: -28.1	2.31 µM [falling, full curve]	0.651 µM [falling, full curve]
# O=C(NCCC1=CCCCC1)c1ccc2c(c1)N(Cc1ccccc1)C(=O)CS2 as listed: -15.6	1.3 µM [rising, full curve, poor fit]	–
